Experimental data: PubChem BioAssay AID1053208 (Peter MacCallum Cancer Centre, 2014)
Shown is an unselected part of about 17,000 deposited reagents. Over the whole deposit, 788 (4.7%) were called active. 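Calls rest on z-score classes alone; an extra cut-off of viability at most 70% of control was not applied to them.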 Entries without a mark were called inactive. The numbers tell different reagents against one gene apart. Some reagents were tested in more than one well and are listed for each. Further read-outs or replicates are left out here.

- Aim: 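Synthetic lethal interactions between gene loss and doxorubicin in osteosarcoma cells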 (primary screen)
- System: mouse osteosarcoma cells, early-passage culture from an engineered mouse model of fibroblastic bone tumour
- Knock-down reagent: siRNA pool against mouse genes, 40 nM
- Duration: about 120 h (48 h before drug, then 72 h with drug)
- Conditions: doxorubicin 100 nM for 72 h, roughly 30-40% inhibitory dose
- Read-out: 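Luminescent ATP signal taken as viability with or without 100 nM doxorubicin for 72 h; mean of two wells set against non-targeting siRNA and turned into robust z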
- Scale: viability z-score with doxorubicin: higher = more viable cells under doxorubicin; viability z-score without drug: higher = more viable cells with knock-down alone
- Active means: 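a pool counts as active when its viability z-score with doxorubicin is -2 or below and its z-score without drug lies between -2 and 2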

Target gene	reagent	combined z-score class	viability z-score with doxorubicin	viability z-score without drug
Rps8 (ribosomal protein S8)	1	low cell count with and without drug	-7.19	-5.9
Pi15 (peptidase inhibitor 15)	1	no change with or without drug	-0.9	-0.17
Dbpht2 (DNA binding protein with his-thr domain)	1	no change with or without drug	0.34	0.84
Pi4k2b (phosphatidylinositol 4-kinase type 2 beta)	1	no change with or without drug	0.67	-0.17
Or1j15 (olfactory receptor family 1 subfamily J member 15)	1	no change with or without drug	-1.69	-1.52
Opn3 (opsin 3)	1	no change with or without drug	0.56	-1.18
Sc5d (sterol-C5-desaturase)	1	no change with or without drug	-0.9	0.34
Vmn1r234 (vomeronasal 1 receptor 234)	1	no change with or without drug	-0.22	1.52
Or6ae1 (olfactory receptor family 6 subfamily AE member 1)	1	no change with or without drug	0.22	0.17
Glis1 (GLIS family zinc finger 1)	1	no change with or without drug	1.01	0.51
Gtpbp8 (GTP-binding protein 8 (putative))	1	no change with or without drug	-0.22	-0.51
Ift27 (intraflagellar transport 27)	1	no change with or without drug	0.22	0.17
Cyp2e1 (cytochrome P450, family 2, subfamily e, polypeptide 1)	1	no change with or without drug	0.56	0.84
Adgrv1 (adhesion G protein-coupled receptor V1)	1	no change with or without drug	0.67	-1.18
Chrnd (cholinergic receptor, nicotinic, delta polypeptide)	1	no change with or without drug	0	-0.51
Erp27 (endoplasmic reticulum protein 27)	1	no change with or without drug	-0.79	1.52
Or10h28 (olfactory receptor family 10 subfamily H member 28)	1	no change with or without drug	-0.45	-0.51
Mpc1	1	no change with or without drug	0.11	0.51
Capg (capping actin protein, gelsolin like)	1	no change with or without drug	-0.45	-0.51
Nat8f2 (N-acetyltransferase 8 (GCN5-related) family member 2)	1	no change with or without drug	-1.57	-1.85
Rundc3b (RUN domain containing 3B)	1	no change with or without drug	-0.79	-0.17
Asb13 (ankyrin repeat and SOCS box-containing 13)	1	no change with or without drug	0	-0.17
Dhdds (dehydrodolichyl diphosphate synthase)	1	no change with or without drug	0.67	0.51
Srebf2 (sterol regulatory element binding factor 2)	1	low cell count without drug only	-1.57	-2.87
H2bc1 (H2B clustered histone 1)	1	no change with or without drug	0.22	-0.17
Psmd12 (proteasome (prosome, macropain) 26S subunit, non-ATPase, 12)	1	low cell count with and without drug	-5.51	-6.58
U2af2 (U2 small nuclear ribonucleoprotein auxiliary factor (U2AF) 2)	1	low cell count with and without drug	-5.17	-3.04
Cntf (ciliary neurotrophic factor)	1	no change with or without drug	-0.9	0.67
Gpr119 (G-protein coupled receptor 119)	1	no change with or without drug	0.45	-1.85
Gpr119 (G-protein coupled receptor 119)	1	low cell count without drug only	-0.22	-2.02
Tgm2 (transglutaminase 2, C polypeptide)	1	no change with or without drug	0.9	0.17
Ndrg3 (N-myc downstream regulated gene 3)	1	no change with or without drug	-0.67	-1.18
Cpne1 (copine I)	1	no change with or without drug	-0.67	-0.84
Med15 (mediator complex subunit 15)	1	low cell count with doxorubicin only (active)	-3.48	0.51
Ninj2 (ninjurin 2)	1	no change with or without drug	1.12	0
Pklr (pyruvate kinase liver and red blood cell)	1	no change with or without drug	-0.67	1.18
Rspo2 (R-spondin 2)	1	no change with or without drug	0.34	1.69
Vmn1r80 (vomeronasal 1 receptor 80)	1	no change with or without drug	-0.56	-0.17
Csde1 (cold shock domain containing E1, RNA binding)	1	low cell count with doxorubicin only (active)	-2.14	-0.51
Manf (mesencephalic astrocyte-derived neurotrophic factor)	1	no change with or without drug	0.45	1.85
Pif1 (PIF1 5'-to-3' DNA helicase)	1	no change with or without drug	0	0.67
Dpy30 (dpy-30, histone methyltransferase complex regulatory subunit)	1	no change with or without drug	1.01	0
4933427D14Rik (RIKEN cDNA 4933427D14 gene)	1	no change with or without drug	-1.35	-0.17
Alad (aminolevulinate, delta-, dehydratase)	1	no change with or without drug	-0.67	-1.52
Ccdc163 (coiled-coil domain containing 163)	1	low cell count without drug only	-1.57	-2.19
Rab3d (RAB3D, member RAS oncogene family)	1	no change with or without drug	-0.45	0.84
Prmt2 (protein arginine N-methyltransferase 2)	1	no change with or without drug	0.22	-0.17
Rbm26 (RNA binding motif protein 26)	1	no change with or without drug	-1.12	-0.51
Cep15 (centrosomal protein 15)	1	no change with or without drug	0.67	0.51
Prl2c4 (prolactin family 2, subfamily c, member 4)	1	no change with or without drug	1.35	-0.17
Csgalnact1 (chondroitin sulfate N-acetylgalactosaminyltransferase 1)	1	no change with or without drug	-0.9	0.17
Or2aj6 (olfactory receptor family 2 subfamily AJ member 6)	1	no change with or without drug	-0.11	-0.51
Bcas3 (BCAS3 microtubule associated cell migration factor)	1	no change with or without drug	1.12	0.84
Mnmip1 (manchette microtubule inner protein 1)	1	no change with or without drug	-1.12	-0.84
Ptch1 (patched 1)	1	no change with or without drug	-0.22	0.51
Pear1 (platelet endothelial aggregation receptor 1)	1	no change with or without drug	-1.57	-0.84
Ifi44l (interferon-induced protein 44 like)	1	high cell count with doxorubicin only	2.25	1.18
Zcchc7 (zinc finger, CCHC domain containing 7)	1	no change with or without drug	0.67	-1.52
Zcchc7 (zinc finger, CCHC domain containing 7)	2	no change with or without drug	-0.22	0
Glmp (glycosylated lysosomal membrane protein)	1	no change with or without drug	-0.79	0.51
1700029F12Rik (RIKEN cDNA 1700029F12 gene)	1	no change with or without drug	0.67	-1.18
Ctdnep1 (CTD nuclear envelope phosphatase 1)	1	no change with or without drug	-0.9	0.67
Mcfd2 (multiple coagulation factor deficiency 2)	1	low cell count without drug only	-0.22	-2.19
